Common to all, as to assay: proximity labelling; BioID: BirA*-fused bait expressed in stable HEK293 Flp-In T-REx cells, tetracycline 1 ug/mL and biotin 50 uM for 24 hr; biotinylated proteins purified on streptavidin-agarose, on-bead trypsin digest, mass spectrometry; SAINT BFDR <=1% against negative control samples; biological duplicates
One assay concerns the target SAR1B-BirA* fusion (UniProt Q9Y6B6).
The target of another assay is SAR1A-BirA* fusion (UniProt Q9NR31).
Assay [1] addresses PCSK9-BirA* fusion (PCSK9 fused to the mutant biotin ligase E. coli BirA*(R118G)) (human) (UniProt Q8NBP7).
The target of assay [2] is alpha-1 antitrypsin-BirA* fusion (human) (UniProt P01009).

Protein sequences, listed by entry. Tags and fused reporters are not part of them. Lines headed by an entry give the natural chain unless they say otherwise; changes in a name come on top. Residues count along the entry.
UniProt Q9Y6B6: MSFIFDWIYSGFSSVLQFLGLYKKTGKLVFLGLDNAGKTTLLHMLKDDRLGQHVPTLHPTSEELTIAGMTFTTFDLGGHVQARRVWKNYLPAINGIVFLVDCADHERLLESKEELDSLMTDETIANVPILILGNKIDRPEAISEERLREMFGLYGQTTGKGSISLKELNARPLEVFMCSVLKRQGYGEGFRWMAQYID
UniProt Q9NR31: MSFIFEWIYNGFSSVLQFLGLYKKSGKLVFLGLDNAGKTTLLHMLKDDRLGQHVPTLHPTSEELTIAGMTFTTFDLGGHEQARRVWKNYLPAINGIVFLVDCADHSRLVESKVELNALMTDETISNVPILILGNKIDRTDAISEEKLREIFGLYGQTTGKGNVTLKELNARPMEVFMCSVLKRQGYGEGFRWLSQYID
UniProt Q8NBP7: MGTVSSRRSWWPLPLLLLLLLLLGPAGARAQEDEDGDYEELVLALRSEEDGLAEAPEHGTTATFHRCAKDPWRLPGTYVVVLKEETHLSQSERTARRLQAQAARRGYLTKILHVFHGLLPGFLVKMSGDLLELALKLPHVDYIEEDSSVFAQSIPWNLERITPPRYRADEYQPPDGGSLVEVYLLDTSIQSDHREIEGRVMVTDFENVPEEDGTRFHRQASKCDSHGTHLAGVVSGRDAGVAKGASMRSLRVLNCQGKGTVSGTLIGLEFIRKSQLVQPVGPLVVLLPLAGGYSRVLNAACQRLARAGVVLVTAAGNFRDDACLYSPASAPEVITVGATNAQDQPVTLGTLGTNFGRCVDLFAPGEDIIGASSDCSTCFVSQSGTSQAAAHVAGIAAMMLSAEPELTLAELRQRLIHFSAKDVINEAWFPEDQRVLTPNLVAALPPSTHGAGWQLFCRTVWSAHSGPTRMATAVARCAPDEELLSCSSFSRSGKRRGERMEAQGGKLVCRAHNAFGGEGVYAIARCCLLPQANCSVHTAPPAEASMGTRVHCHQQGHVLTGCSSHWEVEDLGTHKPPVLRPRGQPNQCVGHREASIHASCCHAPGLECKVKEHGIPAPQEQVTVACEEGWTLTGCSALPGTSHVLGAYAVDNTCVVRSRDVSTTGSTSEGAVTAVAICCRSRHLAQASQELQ
UniProt P01009, residues 25-418: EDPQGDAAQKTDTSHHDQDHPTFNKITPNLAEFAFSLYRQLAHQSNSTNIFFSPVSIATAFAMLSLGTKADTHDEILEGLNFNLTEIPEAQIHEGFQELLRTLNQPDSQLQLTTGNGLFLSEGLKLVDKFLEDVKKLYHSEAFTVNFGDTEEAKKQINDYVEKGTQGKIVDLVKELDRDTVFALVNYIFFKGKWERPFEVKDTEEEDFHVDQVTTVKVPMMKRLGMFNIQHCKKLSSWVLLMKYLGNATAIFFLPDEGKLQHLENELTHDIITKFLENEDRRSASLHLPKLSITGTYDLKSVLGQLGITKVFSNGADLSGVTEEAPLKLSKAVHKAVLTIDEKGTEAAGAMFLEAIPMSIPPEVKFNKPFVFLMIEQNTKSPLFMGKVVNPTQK
UniProt O15260: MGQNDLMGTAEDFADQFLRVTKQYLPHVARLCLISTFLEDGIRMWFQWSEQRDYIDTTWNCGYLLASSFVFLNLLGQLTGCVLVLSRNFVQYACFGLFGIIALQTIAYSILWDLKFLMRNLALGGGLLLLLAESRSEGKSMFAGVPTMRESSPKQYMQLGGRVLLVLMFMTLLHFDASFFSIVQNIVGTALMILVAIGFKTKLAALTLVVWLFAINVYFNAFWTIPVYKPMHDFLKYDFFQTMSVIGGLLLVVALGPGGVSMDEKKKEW

Binding data for two molecules are collected here from publication PMC6156083.

These are yes or no findings as the source states them, for the method shown. In cells and extracts the contact can be indirect. Here binding means that the protein was enriched with, or labelled near, the bait; the list need not be complete.

Regarding “SURF4 (endogenous prey in BioID) (from UniProt O15260 1-269) (receptor)”, the binding result (in the assay with SAR1B-BirA* fusion; with SAR1A-BirA* fusion; in assay [1]) was “binds” each time.

B1: LMAN1 (endogenous prey in BioID) (receptor, UniProt P49257 31-510)
chain: DGVGGDPAVALPHRRFEYKYSFKGPHLVQSDGTVPFWAHAGNAIPSSDQIRVAPSLKSQRGSVWTKTKAAFENWEVEVTFRVTGRGRIGADGLAIWYAENQGLEGPVFGSADLWNGVGIFFDSFDNDGKKNNPAIVIIGNNGQIHYDHQNDGASQALASCQRDFRNKPYPVRAKITYYQNTLTVMINNGFTPDKNDYEFCAKVENMIIPAQGHFGISAATGGLADDHDVLSFLTFQLTEPGKEPPTPDKEISEKEKEKYQEEFEHFQQELDKKKEEFQKGHPDLQGQPAEEIFESVGDRELRQVFEGQNRIHLEIKQLNRQLDMILDEQRRYVSSLTEEISKRGAGMPGQHGQITQQELDTVVKTQHEILRQVNEMKNSMSETVRLVSGMQHPGSAGGVYETTQHFIDIKEHLHIVKRDIDNLVQRNMPSNEKPKCPELPPFPSCLSTVHFIIFVVVQTVLFIGYIMYRSQQEAAAKKFF
modifications: biotinylated on primary amines by BirA* (sites not given)
For the molecule B1, in assay [2], the binding entry was “binds”.
